Results reported in article PMC11042868.

What was measured:
[1] = biological target: HER2 on SK-BR-3 cells (Homo sapiens) (UniProt P04626); assay: cell binding, NIR fluorescence; settings: live adherent cells (1e4/well), 0.01-10 uM 5'-IRD800 aptamer in growth medium with 5% FBS, 37 C (or 4 C), 1 h, buffer salt and pH not stated, protein on the cell surface, label: 5' IRD800CW, single-stranded DNA
[2] = biological target: EGFR on MDA-MB-231 cells (HER2-negative control) (Homo sapiens) (UniProt P00533); assay: cell binding, NIR fluorescence; settings: HER2-negative MDA-MB-231 cells; live adherent cells (1e4/well), 0.01-10 uM 5'-IRD800 aptamer in growth medium with 5% FBS, 37 C (or 4 C), 1 h; buffer salt and pH not stated; protein on the cell surface; label: 5' IRD800CW; single-stranded DNA
[3] = biological target: HER2 on MDA-MB-453 cells (Homo sapiens) (UniProt P04626); assay: cell binding, NIR fluorescence; settings: live adherent cells (1e4/well), 0.01-10 uM 5'-IRD800 aptamer in growth medium with 5% FBS, 37 C (or 4 C), 1 h, buffer salt and pH not stated, protein on the cell surface, label: 5' IRD800CW, single-stranded DNA
[4] = biological target: HER2 on MDA-MB-453 cells (Homo sapiens) (UniProt P04626); assay: competition with a labelled probe; settings: 1-20 uM unlabeled vs 1 uM IRD800-HMAP7, almost complete inhibition at 20 uM; live adherent cells (1e4/well), 0.01-10 uM 5'-IRD800 aptamer in growth medium with 5% FBS, 37 C (or 4 C), 1 h; buffer salt and pH not stated; protein on the cell surface; single-stranded DNA

Row | Sequence | binding result [1] | binding result [2] | binding result [3] | binding result ([1]; lowest affinity of the 10) | binding result ([3]; lowest affinity of the 10) | binding result [4]
1 | ACCAATCGCTCGTCATCACATAAAGAACCCCTCGAACCCCG [K10] | binds | no binding | binds |  |  | 
2 | ACCATCACGCCGACGTTTACCCACACAGCCAGAATCCCCCC [M1] | binds | no binding | binds |  |  | 
3 | CACCCAAACTTGGTCTGGATACCCCTTATGCGCGTAGTTAC [M17] | binds | no binding | binds |  |  | 
4 | CCAATGTATGGGCGGTCGGTGGATACACGTCTTAGCGTCGT [M27] | binds | no binding | binds |  |  | 
5 | CCCACGATCTTCGTACCGGTCAATGCTTCAGCCTTGCGACG [M9] |  | no binding |  | binds more weakly | binds more weakly | 
6 | CCGCCCAAACACACGTAAACAGATGAGGAGCCGACACTGGG [HMAP7 (M7)] |  | no binding |  |  |  | 
7 | CCGCCCAAACACACGTAAACAGATGAGGAGCCGACACTGGG [HMAP7 unlabeled] |  |  |  |  |  | binds
8 | CTCTTCGGGTGGGTGCGGGGTCCGAGTACTGTCTCACAGTG [M23] | binds | no binding | binds |  |  | 
9 | GCCGCCGAAGAACTCTCAGCACGACCAGCCACCCCACGAGG [K15] | binds | no binding | binds |  |  | 
10 | GCGCCGGCACCCCCCCGAGAATACTCCCACCACGTACACTT [M22] | binds | no binding | binds |  |  | 
11 | TGGTCAATAATGTCCGGTAAGAGGCGCACAACTGGTTCGGT [K12] | binds | no binding | binds |  |  | 

Construct, isoform or probe ends are uncertain for at least one entry. Where cells or extracts were used, other partners may take part. For some assays here: No signal at the amounts used counts as a negative. For some assays here: At least one verdict rests on a figure or table, not on a statement of the authors. For some assays here: A weaker result is weaker than the reference pair of the same experiment.
